Tested on: MC3T3 cells
Experiment: Microarray analysis (GSEA, IPA) of thapsigargin-induced mild ER stress
Type: cell-based, mouse
Details: 10 nM; score of 3 or above significant
Method: Responses to Administration of Thapsigargin—Linkage to hypoxia through microarray analysis: In response to thapsigargin-induced mild ER stress (1 h exposure at 10 nM), microarray experiments were conducted. First, Gene Set Enrichment Analysis (GSEA; Broad Institute) was used to identify a group of genes that shared common biological functions (Hamamura, K., et al., “Microarray analysis of thapsigargin-induced stress to the endoplasmic reticulum of mouse osteoblasts,” J. Bone Miner. Metab. 26:231-240 (2008)). For each group of gene sets, GSEA calculates an enrichment score and evaluates statistical significance in the enrichment score. […] The highest normalized enrichment score was given to the gene set, HYPOXIA_UP. All genes present in the array were reordered based on a ranked list-metric value (a mean expression ratio between the thapsigargin-treated and untreated samples), and the best enrichment score of “−0.66” was assigned. Note that if the expression ratio is random among the genes in HYPOXIA_UP, the expected enrichment score is ±0.23. The enrichment score, ranked […] and P (enrichment score) supported the conclusions drawn from the software program output. […]

Q: Which “IPA pathway score (Pathway 1 and Pathway 2)” value does the source give for `C/C=C(/C)C(=O)O[C@H]1C(C)=C2[C@H]([C@@H]1OC(=O)CCCCCCC)[C@@](C)(OC(C)=O)C[C@H](OC(=O)CCC)[C@@]1(O)[C@H]2OC(=O)[C@@]1(C)O` [thapsigargin] here?
A: 55

From patent US9056105B2, “Method for treatment of bone diseases and fractures” (INDIANA UNIVERSITY RESEARCH AND TECHNOLOGY CORPORATION, priority 2008, dated 2015)
